This is one part of the list.
Compound: Cc1cc(ccc1-c1ccccc1)C(=O)N1CCCN(CC1)C(=O)CCl [compound 10]
Assay: probe-labelled cysteine peptide fold change vs DMSO (competition) (log2 fold change); higher = less target engagement (more negative = stronger competition)
Settings: 10 µM; THP-1; incubation time: 4 h
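Note: competitive profiling in live THP-1 cells: cysteine peptides tagged with an iodoacetamide desthiobiotin (IA-DTB) probe, intensity after compound treatment relative to DMSO-treated cells.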

Chains of the proteins cited; added tags and fusions are not shown. Lines headed by an entry give the natural chain unless they say otherwise; changes in a name come on top.
UniProt Q8TEQ6: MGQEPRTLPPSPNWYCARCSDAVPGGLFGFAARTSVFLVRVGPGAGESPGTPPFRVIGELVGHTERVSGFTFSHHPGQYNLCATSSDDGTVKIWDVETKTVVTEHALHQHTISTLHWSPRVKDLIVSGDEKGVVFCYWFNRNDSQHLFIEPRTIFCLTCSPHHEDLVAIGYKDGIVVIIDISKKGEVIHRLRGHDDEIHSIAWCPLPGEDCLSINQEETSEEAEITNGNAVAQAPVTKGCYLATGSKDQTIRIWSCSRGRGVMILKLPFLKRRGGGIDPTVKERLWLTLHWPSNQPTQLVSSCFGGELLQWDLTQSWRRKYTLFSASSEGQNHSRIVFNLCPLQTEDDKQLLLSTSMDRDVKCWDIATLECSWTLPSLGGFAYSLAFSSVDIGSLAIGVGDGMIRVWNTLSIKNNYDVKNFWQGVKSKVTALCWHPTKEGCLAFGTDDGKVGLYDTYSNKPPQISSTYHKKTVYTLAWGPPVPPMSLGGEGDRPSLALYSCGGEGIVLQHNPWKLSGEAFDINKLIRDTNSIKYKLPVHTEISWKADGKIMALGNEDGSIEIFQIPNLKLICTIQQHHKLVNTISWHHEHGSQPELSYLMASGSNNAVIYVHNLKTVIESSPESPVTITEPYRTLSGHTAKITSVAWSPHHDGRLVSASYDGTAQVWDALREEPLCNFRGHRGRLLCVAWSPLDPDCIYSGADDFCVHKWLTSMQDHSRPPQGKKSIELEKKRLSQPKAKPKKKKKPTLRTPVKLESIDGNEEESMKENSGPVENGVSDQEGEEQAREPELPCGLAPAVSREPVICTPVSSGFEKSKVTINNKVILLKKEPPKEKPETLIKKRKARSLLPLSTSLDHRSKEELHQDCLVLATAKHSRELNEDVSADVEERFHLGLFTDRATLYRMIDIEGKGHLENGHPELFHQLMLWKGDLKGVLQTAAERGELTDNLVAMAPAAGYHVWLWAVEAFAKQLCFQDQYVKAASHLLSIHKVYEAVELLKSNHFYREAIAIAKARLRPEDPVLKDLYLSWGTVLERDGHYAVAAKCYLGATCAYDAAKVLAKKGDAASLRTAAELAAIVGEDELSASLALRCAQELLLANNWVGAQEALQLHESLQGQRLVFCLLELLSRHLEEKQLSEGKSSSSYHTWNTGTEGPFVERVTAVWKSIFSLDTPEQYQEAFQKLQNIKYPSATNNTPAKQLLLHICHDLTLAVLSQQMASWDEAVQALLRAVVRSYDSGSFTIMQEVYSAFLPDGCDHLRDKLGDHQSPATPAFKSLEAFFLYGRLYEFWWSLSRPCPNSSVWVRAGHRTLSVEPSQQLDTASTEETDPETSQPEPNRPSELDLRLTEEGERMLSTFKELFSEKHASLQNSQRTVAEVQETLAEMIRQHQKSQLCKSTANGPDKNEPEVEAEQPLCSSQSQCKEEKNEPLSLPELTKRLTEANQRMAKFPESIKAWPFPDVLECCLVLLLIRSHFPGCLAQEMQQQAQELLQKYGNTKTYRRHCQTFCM
UniProt Q969S9: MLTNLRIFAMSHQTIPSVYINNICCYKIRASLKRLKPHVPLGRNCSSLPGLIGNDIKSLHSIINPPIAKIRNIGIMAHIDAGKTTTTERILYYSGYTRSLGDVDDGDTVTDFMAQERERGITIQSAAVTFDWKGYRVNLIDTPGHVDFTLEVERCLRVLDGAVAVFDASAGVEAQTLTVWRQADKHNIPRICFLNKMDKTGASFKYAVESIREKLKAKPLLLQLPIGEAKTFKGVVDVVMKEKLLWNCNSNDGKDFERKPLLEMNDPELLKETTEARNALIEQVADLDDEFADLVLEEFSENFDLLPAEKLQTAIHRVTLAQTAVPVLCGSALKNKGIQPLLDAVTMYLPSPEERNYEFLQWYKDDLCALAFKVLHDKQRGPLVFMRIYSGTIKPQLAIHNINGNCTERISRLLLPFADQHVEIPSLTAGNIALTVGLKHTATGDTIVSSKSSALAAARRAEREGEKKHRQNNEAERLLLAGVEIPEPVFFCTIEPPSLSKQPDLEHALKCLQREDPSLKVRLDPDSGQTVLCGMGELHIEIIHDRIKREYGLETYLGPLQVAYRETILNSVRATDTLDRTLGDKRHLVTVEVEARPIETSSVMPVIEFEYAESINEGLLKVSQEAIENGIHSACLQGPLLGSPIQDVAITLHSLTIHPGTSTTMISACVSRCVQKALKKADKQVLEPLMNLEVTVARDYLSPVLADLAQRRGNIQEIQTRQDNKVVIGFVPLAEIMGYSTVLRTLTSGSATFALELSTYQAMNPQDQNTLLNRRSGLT
UniProt Q9UJY4: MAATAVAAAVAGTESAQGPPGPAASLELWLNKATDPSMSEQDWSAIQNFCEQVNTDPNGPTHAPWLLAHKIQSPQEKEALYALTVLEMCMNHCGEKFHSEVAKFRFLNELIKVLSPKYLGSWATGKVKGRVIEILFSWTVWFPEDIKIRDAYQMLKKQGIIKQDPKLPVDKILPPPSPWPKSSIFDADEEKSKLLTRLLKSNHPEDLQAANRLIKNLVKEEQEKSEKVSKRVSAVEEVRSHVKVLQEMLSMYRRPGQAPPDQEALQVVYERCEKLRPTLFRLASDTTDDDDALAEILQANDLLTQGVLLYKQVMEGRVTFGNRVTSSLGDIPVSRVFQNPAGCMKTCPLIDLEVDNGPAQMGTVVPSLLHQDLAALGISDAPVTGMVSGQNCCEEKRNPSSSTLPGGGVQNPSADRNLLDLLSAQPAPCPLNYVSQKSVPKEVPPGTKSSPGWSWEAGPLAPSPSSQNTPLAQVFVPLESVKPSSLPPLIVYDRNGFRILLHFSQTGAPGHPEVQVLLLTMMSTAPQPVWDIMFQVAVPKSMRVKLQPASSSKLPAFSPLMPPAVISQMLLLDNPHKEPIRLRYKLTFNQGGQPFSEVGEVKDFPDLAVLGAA
UniProt P57678: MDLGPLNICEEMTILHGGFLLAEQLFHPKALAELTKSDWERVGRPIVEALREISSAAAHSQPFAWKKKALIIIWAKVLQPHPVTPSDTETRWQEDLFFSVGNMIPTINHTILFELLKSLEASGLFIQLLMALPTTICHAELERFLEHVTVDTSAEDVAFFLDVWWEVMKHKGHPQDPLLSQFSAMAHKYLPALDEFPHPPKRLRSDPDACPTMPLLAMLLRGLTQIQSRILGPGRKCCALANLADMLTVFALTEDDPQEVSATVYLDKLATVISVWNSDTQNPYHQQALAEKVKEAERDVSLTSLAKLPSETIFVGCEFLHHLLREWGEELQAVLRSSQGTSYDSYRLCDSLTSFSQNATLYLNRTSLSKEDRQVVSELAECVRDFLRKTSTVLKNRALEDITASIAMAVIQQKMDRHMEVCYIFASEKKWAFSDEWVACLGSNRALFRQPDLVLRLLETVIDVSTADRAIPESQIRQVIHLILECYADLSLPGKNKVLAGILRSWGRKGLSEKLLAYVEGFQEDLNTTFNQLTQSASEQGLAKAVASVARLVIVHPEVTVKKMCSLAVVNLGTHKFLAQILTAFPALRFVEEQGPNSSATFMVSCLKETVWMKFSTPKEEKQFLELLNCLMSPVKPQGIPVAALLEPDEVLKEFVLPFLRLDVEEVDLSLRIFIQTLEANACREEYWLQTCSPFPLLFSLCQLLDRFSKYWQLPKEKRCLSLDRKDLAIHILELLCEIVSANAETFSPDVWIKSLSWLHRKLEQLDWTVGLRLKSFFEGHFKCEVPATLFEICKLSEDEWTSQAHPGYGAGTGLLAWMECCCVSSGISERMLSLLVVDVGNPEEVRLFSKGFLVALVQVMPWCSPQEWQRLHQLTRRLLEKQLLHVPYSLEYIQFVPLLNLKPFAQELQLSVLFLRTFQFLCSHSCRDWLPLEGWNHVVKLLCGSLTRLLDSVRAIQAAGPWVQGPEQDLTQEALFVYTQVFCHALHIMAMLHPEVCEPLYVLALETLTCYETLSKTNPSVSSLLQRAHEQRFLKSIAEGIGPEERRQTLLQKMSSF
UniProt Q9H840: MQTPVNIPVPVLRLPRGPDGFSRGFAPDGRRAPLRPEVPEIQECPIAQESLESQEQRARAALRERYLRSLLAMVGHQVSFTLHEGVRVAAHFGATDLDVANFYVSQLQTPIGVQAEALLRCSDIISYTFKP
UniProt Q14161: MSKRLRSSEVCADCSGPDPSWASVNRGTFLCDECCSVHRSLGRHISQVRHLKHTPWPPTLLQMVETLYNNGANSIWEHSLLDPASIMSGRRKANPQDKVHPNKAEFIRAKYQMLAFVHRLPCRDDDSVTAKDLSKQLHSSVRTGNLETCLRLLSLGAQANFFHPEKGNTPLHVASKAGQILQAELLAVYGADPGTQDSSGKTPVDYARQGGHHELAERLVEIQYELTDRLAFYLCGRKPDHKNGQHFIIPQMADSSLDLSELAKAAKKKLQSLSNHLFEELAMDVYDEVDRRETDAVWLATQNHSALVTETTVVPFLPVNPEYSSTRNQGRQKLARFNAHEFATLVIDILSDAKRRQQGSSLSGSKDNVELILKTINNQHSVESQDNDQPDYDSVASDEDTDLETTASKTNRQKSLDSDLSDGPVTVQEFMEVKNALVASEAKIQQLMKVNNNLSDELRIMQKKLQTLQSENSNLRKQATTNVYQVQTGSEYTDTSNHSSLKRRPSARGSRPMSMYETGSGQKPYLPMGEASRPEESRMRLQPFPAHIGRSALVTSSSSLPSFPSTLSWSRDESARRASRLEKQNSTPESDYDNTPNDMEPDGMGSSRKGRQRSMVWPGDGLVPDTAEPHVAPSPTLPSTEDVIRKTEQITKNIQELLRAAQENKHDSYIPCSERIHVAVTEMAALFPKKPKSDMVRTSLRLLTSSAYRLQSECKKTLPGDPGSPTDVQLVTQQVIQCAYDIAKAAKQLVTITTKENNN
UniProt Q9H3C7, whole entry, looked up: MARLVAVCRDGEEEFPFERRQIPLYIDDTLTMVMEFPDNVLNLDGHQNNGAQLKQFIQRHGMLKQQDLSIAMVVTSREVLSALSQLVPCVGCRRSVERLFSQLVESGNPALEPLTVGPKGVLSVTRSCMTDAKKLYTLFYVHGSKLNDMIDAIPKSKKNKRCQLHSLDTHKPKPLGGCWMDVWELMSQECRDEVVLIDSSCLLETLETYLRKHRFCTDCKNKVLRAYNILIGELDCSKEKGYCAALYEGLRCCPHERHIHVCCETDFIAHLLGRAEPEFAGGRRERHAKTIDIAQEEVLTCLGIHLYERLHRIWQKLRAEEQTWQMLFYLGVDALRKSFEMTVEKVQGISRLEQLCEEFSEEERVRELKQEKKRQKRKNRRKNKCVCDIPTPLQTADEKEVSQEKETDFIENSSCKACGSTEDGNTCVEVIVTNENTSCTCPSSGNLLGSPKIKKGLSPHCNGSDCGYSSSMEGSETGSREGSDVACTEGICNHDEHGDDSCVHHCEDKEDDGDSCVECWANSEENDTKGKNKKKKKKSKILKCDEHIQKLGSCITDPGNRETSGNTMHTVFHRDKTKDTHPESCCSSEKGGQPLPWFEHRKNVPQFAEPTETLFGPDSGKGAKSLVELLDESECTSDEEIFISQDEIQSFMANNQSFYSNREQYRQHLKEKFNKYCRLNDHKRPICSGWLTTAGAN
UniProt Q8WXI9: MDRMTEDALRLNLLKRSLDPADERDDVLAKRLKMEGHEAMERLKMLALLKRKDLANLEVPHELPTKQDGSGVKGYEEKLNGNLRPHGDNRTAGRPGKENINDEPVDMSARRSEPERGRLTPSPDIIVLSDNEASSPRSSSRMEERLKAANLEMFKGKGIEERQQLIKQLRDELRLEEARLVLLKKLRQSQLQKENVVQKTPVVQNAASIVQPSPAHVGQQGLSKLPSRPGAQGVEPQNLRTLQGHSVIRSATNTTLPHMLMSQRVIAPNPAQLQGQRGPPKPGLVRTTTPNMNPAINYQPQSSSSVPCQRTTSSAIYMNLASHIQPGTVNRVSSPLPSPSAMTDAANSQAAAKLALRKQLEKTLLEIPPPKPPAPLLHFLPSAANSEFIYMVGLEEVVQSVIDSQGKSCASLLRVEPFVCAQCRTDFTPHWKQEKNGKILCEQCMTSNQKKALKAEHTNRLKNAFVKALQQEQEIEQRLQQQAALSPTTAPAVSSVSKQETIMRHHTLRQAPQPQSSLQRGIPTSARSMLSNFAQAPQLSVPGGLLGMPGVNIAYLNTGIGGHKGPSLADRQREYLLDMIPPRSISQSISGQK
UniProt Q99684: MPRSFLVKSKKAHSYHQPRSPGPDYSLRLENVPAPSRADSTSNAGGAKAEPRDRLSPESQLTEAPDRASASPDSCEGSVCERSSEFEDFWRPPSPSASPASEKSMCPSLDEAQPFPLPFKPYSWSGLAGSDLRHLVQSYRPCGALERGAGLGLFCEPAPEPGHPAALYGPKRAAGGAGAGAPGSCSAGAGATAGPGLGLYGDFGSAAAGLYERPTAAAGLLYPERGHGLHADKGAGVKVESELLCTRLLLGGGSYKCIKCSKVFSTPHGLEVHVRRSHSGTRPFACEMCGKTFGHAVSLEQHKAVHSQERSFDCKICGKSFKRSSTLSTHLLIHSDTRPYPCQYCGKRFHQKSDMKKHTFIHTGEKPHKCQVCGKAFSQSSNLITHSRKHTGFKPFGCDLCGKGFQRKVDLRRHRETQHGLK

| Target | probe-labelled cysteine peptide fold change |
| --- | --- |
| GEMIN5_Q8TEQ6_572_LICTIQQHHK (UniProt Q8TEQ6) | 0.132 |
| GFM2_Q969S9_248_LLWNCNSNDGK (UniProt Q969S9) | -0.353 |
| GGA2_Q9UJY4_429_NLLDLLSAQPAPCPLNYVSQK (UniProt Q9UJY4) | -0.304 |
| GEMIN4_P57678_317_LPSETIFVGCEFLHHLLR (UniProt P57678) | 0.0884 |
| GALT_P07902_180_GAMMGCSNPHPHCQVWASSFLPDIAQR (UniProt P07902) | -0.299 |
| GEMIN7_Q9H840_44_APLRPEVPEIQECPIAQESLESQEQR (UniProt Q9H840) | -0.104 |
| GCFC2_P16383_595_VILEEHSTCENEVSK (UniProt P16383) | -0.33 |
| GIT2_Q14161_235_LAFYLCGR (UniProt Q14161) | -0.031 |
| GAMT_Q14353_91_VQEAPIDEHWIIECNDGVFQR (UniProt Q14353) | -0.0458 |
| GGNBP2_Q9H3C7_89+92_EVLSALSQLVPCVGCR (UniProt Q9H3C7) | -0.275 |
| GATAD2B_Q8WXI9_444_ILCEQCMTSNQK (UniProt Q8WXI9) | 0.0815 |
| GATAD2B_Q8WXI9_420+423_VEPFVCAQCR (UniProt Q8WXI9) | -0.0475 |
| GFI1_Q99684_155_GAGLGLFCEPAPEPGHPAALYGPK (UniProt Q99684) | -0.225 |
| GEMIN4_P57678_382_QVVSELAECVR (UniProt P57678) | 0.0204 |
| GBA2_Q9HCG7_511_NMCHLRPTLR (UniProt Q9HCG7) | 0.199 |
| GCLM_P48507_35+46_CPSTHSEELHDCIQK (UniProt P48507) | -0.112 |
